No constants are given. Whether binding was seen depends on the method and setting. Binding seen in cells or lysates may run through a third protein. Some binding calls cover weakened binding; strength is not graded here. Tags and fused reporters may be left off the sequences shown.

The record followed here is PMC9867983.

Assay [1] concerns the target T1, mitofusin-2 (MFN2), endogenous (human (endogenous in HeLa and A549)), O95140.
T1 chain: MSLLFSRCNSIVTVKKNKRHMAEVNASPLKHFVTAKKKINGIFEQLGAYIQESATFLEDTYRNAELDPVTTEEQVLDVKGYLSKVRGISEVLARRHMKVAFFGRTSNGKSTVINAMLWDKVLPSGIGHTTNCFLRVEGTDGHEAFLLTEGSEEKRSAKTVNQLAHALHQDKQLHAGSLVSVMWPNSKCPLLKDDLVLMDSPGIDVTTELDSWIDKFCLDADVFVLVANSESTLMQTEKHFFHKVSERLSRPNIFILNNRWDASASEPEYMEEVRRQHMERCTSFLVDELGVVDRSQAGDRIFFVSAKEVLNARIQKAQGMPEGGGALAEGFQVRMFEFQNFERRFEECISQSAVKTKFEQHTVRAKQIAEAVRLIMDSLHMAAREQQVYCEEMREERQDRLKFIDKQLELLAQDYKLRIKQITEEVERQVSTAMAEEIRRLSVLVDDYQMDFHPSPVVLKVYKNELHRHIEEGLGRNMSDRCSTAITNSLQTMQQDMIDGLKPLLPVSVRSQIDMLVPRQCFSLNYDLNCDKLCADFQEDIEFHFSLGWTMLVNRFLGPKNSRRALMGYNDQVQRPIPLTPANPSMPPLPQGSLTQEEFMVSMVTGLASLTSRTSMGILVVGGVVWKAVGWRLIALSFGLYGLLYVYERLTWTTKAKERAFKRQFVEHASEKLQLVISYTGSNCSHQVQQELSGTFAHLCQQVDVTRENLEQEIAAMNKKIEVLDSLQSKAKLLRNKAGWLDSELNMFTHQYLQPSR
In words: co-IP; anti-MFN2 immunoprecipitation from HeLa and A549 lysates (NETN buffer: 50 mM Tris-HCl pH 8.0, 150 mM NaCl, 1% NP-40, 1 mM EDTA; 4 °C), Western blot of MFN1; IgG as negative control; cells with HITT overexpression (also in doses, full length or fragments), HITT knock-down, 3 h UV treatment or MiR-205 overexpression. As to conditions: remark: other sources report otherwise. (In general: Immunoblotting shows a protein as a band on a membrane.)

Assay [2] concerns the target T2, exogenous tagged MFN2 (Flag-MFN2 and MFN2-HA) (human), O95140.
T2 chain: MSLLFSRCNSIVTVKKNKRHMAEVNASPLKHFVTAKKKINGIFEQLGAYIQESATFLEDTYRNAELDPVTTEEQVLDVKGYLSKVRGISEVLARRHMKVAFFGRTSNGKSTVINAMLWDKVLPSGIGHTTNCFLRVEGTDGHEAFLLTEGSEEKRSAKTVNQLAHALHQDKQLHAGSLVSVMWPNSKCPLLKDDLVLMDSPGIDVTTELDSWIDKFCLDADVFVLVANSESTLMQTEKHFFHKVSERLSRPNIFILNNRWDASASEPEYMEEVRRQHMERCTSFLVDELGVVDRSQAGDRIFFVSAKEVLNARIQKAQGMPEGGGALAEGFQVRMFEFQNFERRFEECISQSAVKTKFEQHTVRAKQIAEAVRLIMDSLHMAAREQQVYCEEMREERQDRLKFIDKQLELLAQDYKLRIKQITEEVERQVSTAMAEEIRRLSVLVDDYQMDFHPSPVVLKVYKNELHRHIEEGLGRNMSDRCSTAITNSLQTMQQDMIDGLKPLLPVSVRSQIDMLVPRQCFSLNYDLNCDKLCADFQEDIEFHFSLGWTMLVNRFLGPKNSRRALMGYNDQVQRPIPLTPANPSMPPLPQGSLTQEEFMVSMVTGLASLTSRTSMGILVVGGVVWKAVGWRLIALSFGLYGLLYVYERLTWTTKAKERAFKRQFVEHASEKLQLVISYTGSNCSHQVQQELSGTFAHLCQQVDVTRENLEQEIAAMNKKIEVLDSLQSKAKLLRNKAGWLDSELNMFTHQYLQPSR
The assay can be described thus: co-IP; immunoprecipitation by tag from lysates of cells transfected with Flag- and HA-tagged MFN1/MFN2 constructs (NETN buffer, 4 °C), Western blot of the other tagged copy; with or without HITT overexpression; IgG as negative control. As to conditions: remark: other sources report otherwise.

B1: mitofusin-1 (MFN1), endogenous, Q8IWA4 1-741 (protein)
chain: MAEPVSPLKHFVLAKKAITAIFDQLLEFVTEGSHFVEATYKNPELDRIATEDDLVEMQGYKDKLSIIGEVLSRRHMKVAFFGRTSSGKSSVINAMLWDKVLPSGIGHITNCFLSVEGTDGDKAYLMTEGSDEKKSVKTVNQLAHALHMDKDLKAGCLVRVFWPKAKCALLRDDLVLVDSPGTDVTTELDSWIDKFCLDADVFVLVANSESTLMNTEKHFFHKVNERLSKPNIFILNNRWDASASEPEYMEDVRRQHMERCLHFLVEELKVVNALEAQNRIFFVSAKEVLSARKQKAQGMPESGVALAEGFHARLQEFQNFEQIFEECISQSAVKTKFEQHTIRAKQILATVKNIMDSVNLAAEDKRHYSVEEREDQIDRLDFIRNQMNLLTLDVKKKIKEVTEEVANKVSCAMTDEICRLSVLVDEFCSEFHPNPDVLKIYKSELNKHIEDGMGRNLADRCTDEVNALVLQTQQEIIENLKPLLPAGIQDKLHTLIPCKKFDLSYNLNYHKLCSDFQEDIVFRFSLGWSSLVHRFLGPRNAQRVLLGLSEPIFQLPRSLASTPTAPTTPATPDNASQEELMITLVTGLASVTSRTSMGIIIVGGVIWKTIGWKLLSVSLTMYGALYLYERLSWTTHAKERAFKQQFVNYATEKLRMIVSSTSANCSHQVKQQIATTFARLCQQVDITQKQLEEEIARLPKEIDQLEKIQNNSKLLRNKAVQLENELENFTKQFLPSSNEES
B1: in assay [1], the binding entry is “binds”.

B2: exogenous tagged MFN1 (Flag-MFN1 and MFN1-HA), Q8IWA4 1-741 (protein)
chain: MAEPVSPLKHFVLAKKAITAIFDQLLEFVTEGSHFVEATYKNPELDRIATEDDLVEMQGYKDKLSIIGEVLSRRHMKVAFFGRTSSGKSSVINAMLWDKVLPSGIGHITNCFLSVEGTDGDKAYLMTEGSDEKKSVKTVNQLAHALHMDKDLKAGCLVRVFWPKAKCALLRDDLVLVDSPGTDVTTELDSWIDKFCLDADVFVLVANSESTLMNTEKHFFHKVNERLSKPNIFILNNRWDASASEPEYMEDVRRQHMERCLHFLVEELKVVNALEAQNRIFFVSAKEVLSARKQKAQGMPESGVALAEGFHARLQEFQNFEQIFEECISQSAVKTKFEQHTIRAKQILATVKNIMDSVNLAAEDKRHYSVEEREDQIDRLDFIRNQMNLLTLDVKKKIKEVTEEVANKVSCAMTDEICRLSVLVDEFCSEFHPNPDVLKIYKSELNKHIEDGMGRNLADRCTDEVNALVLQTQQEIIENLKPLLPAGIQDKLHTLIPCKKFDLSYNLNYHKLCSDFQEDIVFRFSLGWSSLVHRFLGPRNAQRVLLGLSEPIFQLPRSLASTPTAPTTPATPDNASQEELMITLVTGLASVTSRTSMGIIIVGGVIWKTIGWKLLSVSLTMYGALYLYERLSWTTHAKERAFKQQFVNYATEKLRMIVSSTSANCSHQVKQQIATTFARLCQQVDITQKQLEEEIARLPKEIDQLEKIQNNSKLLRNKAVQLENELENFTKQFLPSSNEES
Consider B2, for which the binding result in assay [2] was “binds”.

B3: exogenous tagged MFN2 (Flag-MFN2 and MFN2-HA), O95140 1-757 (protein)
chain: MSLLFSRCNSIVTVKKNKRHMAEVNASPLKHFVTAKKKINGIFEQLGAYIQESATFLEDTYRNAELDPVTTEEQVLDVKGYLSKVRGISEVLARRHMKVAFFGRTSNGKSTVINAMLWDKVLPSGIGHTTNCFLRVEGTDGHEAFLLTEGSEEKRSAKTVNQLAHALHQDKQLHAGSLVSVMWPNSKCPLLKDDLVLMDSPGIDVTTELDSWIDKFCLDADVFVLVANSESTLMQTEKHFFHKVSERLSRPNIFILNNRWDASASEPEYMEEVRRQHMERCTSFLVDELGVVDRSQAGDRIFFVSAKEVLNARIQKAQGMPEGGGALAEGFQVRMFEFQNFERRFEECISQSAVKTKFEQHTVRAKQIAEAVRLIMDSLHMAAREQQVYCEEMREERQDRLKFIDKQLELLAQDYKLRIKQITEEVERQVSTAMAEEIRRLSVLVDDYQMDFHPSPVVLKVYKNELHRHIEEGLGRNMSDRCSTAITNSLQTMQQDMIDGLKPLLPVSVRSQIDMLVPRQCFSLNYDLNCDKLCADFQEDIEFHFSLGWTMLVNRFLGPKNSRRALMGYNDQVQRPIPLTPANPSMPPLPQGSLTQEEFMVSMVTGLASLTSRTSMGILVVGGVVWKAVGWRLIALSFGLYGLLYVYERLTWTTKAKERAFKRQFVEHASEKLQLVISYTGSNCSHQVQQELSGTFAHLCQQVDVTRENLEQEIAAMNKKIEVLDSLQSKAKLLRNKAGWLDSELNMFTHQYLQPSR
In the case of B3, the binding result in assay [2] is reported as “binds”.
